Source: PubChem BioAssay AID662 (National Center for Advancing Translational Sciences (NCATS), 2007)
Values joined by “and” are separate entries in the source; they are usually repeats but may differ in a detail not shown here. Equal entries are not always repeated. The list shows a part of the results. Further columns of the screen follow, without active or inactive calls. Most of these compounds were active or inconclusive in the main read-out, so they are no random draw. Potencies come from curve fits of mixed quality, noted in brackets.

Test: Cell signaling CRE-BLA (Fsk stim)
Conditions: CHO CRE-bla reporter (cAMP response element driving beta-lactamase), forskolin EC10, beta-lactamase ratio; measured here: 460 nm blue channel
Procedure, shortened: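 CHO CRE-bla cells, overnight plating in Opti-MEM with 0.5% dialyzed FBS; cpd titration + EC10 NKH 477, 3 h 37 °C; CCF4 2 h RT; ex 405/em 460 vs 530 ratio → %Activity, AC50.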

SMILES | AC50
COc1cc(NC(=O)c2c(-c3ccccc3Cl)noc2C)c2ncccc2c1 | 2.51 µM [rising, full curve]
CCOc1ccc(NCC2CCOC(C)(C)C2)cc1 (centres undefined) | 3.98 µM [rising, full curve]
O=C(CSc1n[nH]c(-c2ccncc2)n1)Nc1ccccn1 | 5.01 µM [rising, single point]
Cn1c(C(=O)NC2CCCCC2)cc2c(=O)n(C)c3ccccc3c21 | 3.16 µM [rising, full curve, poor fit]
O=C(Nc1ccc2c(c1)nc1n2CCCCC1)c1cc(S(=O)(=O)N2CCOCC2)ccc1Cl | 3.16 µM [rising, single point]
Cc1cc(C)n(CC(O)CN2c3ccccc3Sc3ccccc32)n1 (centres undefined) | 25.1 µM [falling, single point]
O=C(Nc1cccc(C(F)(F)F)c1)C1CCCN(S(=O)(=O)c2cnc[nH]2)C1 (centres undefined) | 0.126 µM [falling, full curve, poor fit]
COc1ccccc1CNc1nc(-c2ccc(N(C)C)cc2)nc2ccccc12 | 5.01 µM [rising, partial curve]
CCc1cc(C(=O)c2ccccc2OC)c(N)s1 | 1.26 µM [falling, partial curve, poor fit]
Cc1nc(C)c(-c2csc(NCc3ccco3)n2)s1 | 12.6 µM [rising, single point]
COc1ccc(C2=NOC(C(=O)NCCN3CCOCC3)C2)cc1 (centres undefined) | 5.01 µM [falling, single point]
Cc1nc(SCC#N)c2c3c(sc2n1)CCC3 | 1.26 µM [rising, partial curve]
O=C(O)CCc1nc2cccnc2n1Cc1ccccc1 | 12.6 µM [rising, single point]
CCOC(=O)C(C)Oc1cccc2c(=O)n(CC(=O)Nc3ccc4c(c3)OCCO4)ccc12 (centres undefined) | 10 µM [rising, partial curve]
Fc1ccc(CSc2ncnc3nc[nH]c23)cc1 | 12.6 µM [rising, partial curve]
CC(C)(C)c1cc(=O)n2c(C#N)c(C#N)nc2[nH]1 | 0.631 µM [rising, single point]
COc1ccc(-c2cn3ccccc3n2)cc1OC | 12.6 µM [rising, single point]
Cc1cc(C(=O)Nc2c(C)n(C)n(-c3ccccc3)c2=O)cs1 | 5.01 µM [falling, full curve]
COc1ccc2c(c1)N(C)C(=O)CC(c1ccccc1)=N2 | 25.1 µM [falling, single point]
CCc1nnc(SCc2ccc(OC)c(Br)c2)n1N | 0.0631 µM [rising, single point]
Cc1cc(C)cc(N2C(=O)C3CC=CCC3C2=O)c1 (centres undefined) | 12.6 µM [rising, single point]
COc1ncnc2sc(-c3ccccc3)cc12 | 12.6 µM [rising, single point]

Among those listed so far, 2 contain two or more sulfur atoms.
SMILES | AC50
Cc1nc(C)c(-c2csc(NCc3ccco3)n2)s1 | 12.6 µM [rising, single point]
Cc1nc(SCC#N)c2c3c(sc2n1)CCC3 | 1.26 µM [rising, partial curve]

Further compounds follow:

SMILES | AC50
CCN1CCN(C(=O)c2cc3cc4cc(OC)ccc4nc3s2)CC1 | 10 µM [rising, single point]
COc1cc(-c2nnc(SCc3c(F)cccc3Cl)o2)cc(OC)c1OC | 3.98 µM [rising, partial curve]
CCC(Sc1nc2n[nH]c(C)c2c(=N)n1-c1cccc(Cl)c1C)C(=O)N(CC)CC (centres undefined) | 1 µM [rising, full curve, poor fit]
CCCCn1c(SCC(N)=O)nnc1-c1cc(OC)c(OC)c(OC)c1 | 6.31 µM [rising, partial curve]
CC1CCCCC1NC(=O)COc1ccc(-n2cnnn2)cc1 (centres undefined) | 0.00398 µM [falling, full curve]
CC(C)Nc1ncnc2c1cnn2-c1ccc(Cl)cc1 | 2 µM [rising, full curve]
COCCN1C(=O)C(O)=C(C(=O)c2ccco2)C1c1cccc(Oc2ccccc2)c1 (centres undefined) | 0.794 µM [rising, single point]
CN(C)S(=O)(=O)c1ccc(C(=O)Nc2nc(-c3cccs3)cs2)cc1 | 12.6 µM [rising, single point]
CCCn1c(SCc2ccccc2)nc2c1c(=O)[nH]c(=O)n2C | 12.6 µM [rising, single point]
Cn1c(-c2ccc(Cl)cc2)cnc1N | 0.631 µM [falling, partial curve]
CCOC(=O)c1cnc(SC2CC(=O)N(c3ccc(OC)c(OC)c3)C2=O)nc1N (centres undefined) | 15.8 µM [rising, single point]
COc1ccc2[nH]c(=O)c(CN(CCc3ccccc3)Cc3nnnn3CC3CCCO3)cc2c1 (centres undefined) | 15.8 µM [rising, single point]
COc1cccc(-c2cncnc2NCCc2c[nH]c3ccc(OC)cc23)c1 | 0.2 µM [rising, partial curve]
O=C(Nc1cc(=O)c2ccccc2o1)N1CCOCC1 | 3.16 µM [rising, partial curve]
Nc1nc(N)c2nc(-c3ccccc3)c(N)nc2n1 | 31.6 µM [rising, single point] and 10 µM [rising, partial curve] and 15.8 µM [rising, partial curve]
CC1=C(C(=O)OCc2ccccc2)C(c2ccccc2)NC(=O)N1CCCCCC(=O)O (centres undefined) | 0.0316 µM [rising, single point]
CC1CCCCN1CCNC(=O)Cn1nc(-c2ccccc2)ccc1=O (centres undefined) | 3.16 µM [rising, partial curve, poor fit]
C=C(C)CSc1nc(N)cc(=O)[nH]1 | 15.8 µM [falling, partial curve]
CCCc1c(OCCCOc2ccc(OCC(=O)O)cc2)ccc(CC=O)c1O | 0.1 µM [rising, full curve]
O=C(OCc1csc(-c2ccccc2)n1)c1cccs1 | 3.98 µM [falling, single point]
COc1ccc(Cl)cc1NC(=O)Cn1c(=O)n2nc(C)nc2c2ccccc21 | 3.98 µM [rising, single point]
CCCCOC(=O)CNc1nnc(SCC(=O)OCC)[nH]c1=O | 25.1 µM [falling, single point]
